Measured values from the supplement of paper PMC10849652.
Some of the results follow.

Chains of the proteins cited; added tags and fusions are not shown. Lines headed by an entry give the natural chain unless they say otherwise; changes in a name come on top.
UniProt Q9Y592: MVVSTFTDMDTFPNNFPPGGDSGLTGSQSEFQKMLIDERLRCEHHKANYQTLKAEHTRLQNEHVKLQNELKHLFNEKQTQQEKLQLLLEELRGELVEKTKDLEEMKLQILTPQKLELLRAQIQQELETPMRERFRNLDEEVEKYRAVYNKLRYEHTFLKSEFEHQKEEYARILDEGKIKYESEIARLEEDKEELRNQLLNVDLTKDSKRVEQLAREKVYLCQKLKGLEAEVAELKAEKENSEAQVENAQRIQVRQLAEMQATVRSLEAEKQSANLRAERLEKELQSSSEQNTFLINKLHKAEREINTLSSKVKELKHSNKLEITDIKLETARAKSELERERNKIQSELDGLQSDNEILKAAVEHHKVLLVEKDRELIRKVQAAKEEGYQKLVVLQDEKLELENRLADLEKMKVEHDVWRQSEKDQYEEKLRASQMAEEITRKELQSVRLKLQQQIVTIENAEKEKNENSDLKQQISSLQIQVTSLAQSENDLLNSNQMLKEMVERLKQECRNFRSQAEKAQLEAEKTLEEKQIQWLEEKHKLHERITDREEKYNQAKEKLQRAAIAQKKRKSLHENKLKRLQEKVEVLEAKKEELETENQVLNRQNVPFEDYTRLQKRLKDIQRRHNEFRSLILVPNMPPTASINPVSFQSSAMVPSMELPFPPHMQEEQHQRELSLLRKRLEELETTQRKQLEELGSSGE
UniProt P30307: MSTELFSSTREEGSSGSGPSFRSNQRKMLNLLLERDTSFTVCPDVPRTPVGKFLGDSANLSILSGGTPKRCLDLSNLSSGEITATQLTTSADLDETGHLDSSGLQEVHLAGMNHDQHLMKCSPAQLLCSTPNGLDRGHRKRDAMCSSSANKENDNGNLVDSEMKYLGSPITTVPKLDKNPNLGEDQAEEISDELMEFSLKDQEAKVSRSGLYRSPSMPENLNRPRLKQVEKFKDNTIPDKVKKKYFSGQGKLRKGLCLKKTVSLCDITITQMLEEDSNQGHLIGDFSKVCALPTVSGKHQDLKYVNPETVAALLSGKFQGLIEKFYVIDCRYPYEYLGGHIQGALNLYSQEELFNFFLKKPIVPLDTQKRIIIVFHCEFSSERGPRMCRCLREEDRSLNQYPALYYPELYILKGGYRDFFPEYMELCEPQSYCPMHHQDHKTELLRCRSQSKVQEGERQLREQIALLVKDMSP
UniProt O75956: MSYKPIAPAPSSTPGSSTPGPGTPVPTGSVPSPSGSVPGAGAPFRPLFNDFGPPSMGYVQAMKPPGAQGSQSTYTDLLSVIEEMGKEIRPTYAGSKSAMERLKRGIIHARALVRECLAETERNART
UniProt Q49AH0, whole entry, looked up: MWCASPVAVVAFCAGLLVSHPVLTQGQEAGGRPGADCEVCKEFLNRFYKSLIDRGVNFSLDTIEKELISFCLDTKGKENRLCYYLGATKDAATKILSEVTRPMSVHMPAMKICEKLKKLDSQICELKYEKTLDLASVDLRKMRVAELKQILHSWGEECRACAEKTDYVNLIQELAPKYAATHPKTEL
UniProt Q711Q0: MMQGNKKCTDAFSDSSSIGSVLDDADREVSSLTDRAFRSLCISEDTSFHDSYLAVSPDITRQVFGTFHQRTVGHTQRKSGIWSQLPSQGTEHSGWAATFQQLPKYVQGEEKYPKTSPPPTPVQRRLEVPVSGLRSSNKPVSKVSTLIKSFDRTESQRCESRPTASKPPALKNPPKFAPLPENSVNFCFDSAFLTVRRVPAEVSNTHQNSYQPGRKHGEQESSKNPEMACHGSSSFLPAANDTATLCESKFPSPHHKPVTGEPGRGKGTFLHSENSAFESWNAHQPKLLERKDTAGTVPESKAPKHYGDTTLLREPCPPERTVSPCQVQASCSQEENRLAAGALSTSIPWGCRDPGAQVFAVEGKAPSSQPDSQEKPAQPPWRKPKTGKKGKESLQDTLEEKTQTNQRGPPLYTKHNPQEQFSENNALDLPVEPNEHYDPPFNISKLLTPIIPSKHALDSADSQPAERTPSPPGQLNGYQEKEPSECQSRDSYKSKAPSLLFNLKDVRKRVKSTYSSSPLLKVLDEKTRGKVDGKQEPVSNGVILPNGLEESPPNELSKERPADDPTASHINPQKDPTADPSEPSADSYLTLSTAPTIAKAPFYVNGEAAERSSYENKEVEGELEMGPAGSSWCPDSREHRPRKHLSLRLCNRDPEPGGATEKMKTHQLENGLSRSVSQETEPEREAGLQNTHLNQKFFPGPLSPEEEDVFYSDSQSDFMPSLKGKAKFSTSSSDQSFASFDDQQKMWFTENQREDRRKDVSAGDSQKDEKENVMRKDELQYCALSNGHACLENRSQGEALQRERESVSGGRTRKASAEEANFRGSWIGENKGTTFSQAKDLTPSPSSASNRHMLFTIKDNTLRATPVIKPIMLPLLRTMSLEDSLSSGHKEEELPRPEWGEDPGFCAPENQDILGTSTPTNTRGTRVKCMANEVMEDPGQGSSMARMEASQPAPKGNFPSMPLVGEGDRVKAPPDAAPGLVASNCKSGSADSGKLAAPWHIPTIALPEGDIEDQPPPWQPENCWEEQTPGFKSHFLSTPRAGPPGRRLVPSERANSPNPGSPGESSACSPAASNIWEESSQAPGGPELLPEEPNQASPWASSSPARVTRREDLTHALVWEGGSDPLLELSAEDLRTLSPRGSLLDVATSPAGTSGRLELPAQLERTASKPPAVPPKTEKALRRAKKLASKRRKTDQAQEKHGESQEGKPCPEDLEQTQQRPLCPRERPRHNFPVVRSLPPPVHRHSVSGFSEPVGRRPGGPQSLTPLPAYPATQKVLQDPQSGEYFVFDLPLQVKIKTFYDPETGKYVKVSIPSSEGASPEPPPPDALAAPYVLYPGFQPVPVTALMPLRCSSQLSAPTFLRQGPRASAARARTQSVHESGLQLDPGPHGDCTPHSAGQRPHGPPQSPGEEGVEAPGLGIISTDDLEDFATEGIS
UniProt Q96MT8: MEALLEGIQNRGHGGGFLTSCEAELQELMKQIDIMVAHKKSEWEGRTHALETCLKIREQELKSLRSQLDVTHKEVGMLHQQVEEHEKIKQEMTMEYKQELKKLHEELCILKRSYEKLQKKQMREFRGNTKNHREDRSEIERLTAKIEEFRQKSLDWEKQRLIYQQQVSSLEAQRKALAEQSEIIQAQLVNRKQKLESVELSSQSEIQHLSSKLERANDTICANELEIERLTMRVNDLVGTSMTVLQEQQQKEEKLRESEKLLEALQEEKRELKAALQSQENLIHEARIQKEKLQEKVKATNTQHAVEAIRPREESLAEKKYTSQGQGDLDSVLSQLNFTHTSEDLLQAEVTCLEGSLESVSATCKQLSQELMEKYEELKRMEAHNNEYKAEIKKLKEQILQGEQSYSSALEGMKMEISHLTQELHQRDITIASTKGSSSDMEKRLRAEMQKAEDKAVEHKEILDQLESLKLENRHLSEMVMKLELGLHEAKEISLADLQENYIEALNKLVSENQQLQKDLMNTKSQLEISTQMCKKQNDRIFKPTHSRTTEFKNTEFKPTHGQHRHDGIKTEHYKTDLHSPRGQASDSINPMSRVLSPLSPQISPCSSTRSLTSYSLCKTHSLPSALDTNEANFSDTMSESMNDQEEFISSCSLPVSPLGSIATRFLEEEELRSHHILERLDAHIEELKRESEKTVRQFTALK
UniProt P53567: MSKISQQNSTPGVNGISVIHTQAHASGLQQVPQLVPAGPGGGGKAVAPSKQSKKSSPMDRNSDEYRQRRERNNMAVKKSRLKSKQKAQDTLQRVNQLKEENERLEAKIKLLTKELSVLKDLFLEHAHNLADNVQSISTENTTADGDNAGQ
UniProt Q9NRR8: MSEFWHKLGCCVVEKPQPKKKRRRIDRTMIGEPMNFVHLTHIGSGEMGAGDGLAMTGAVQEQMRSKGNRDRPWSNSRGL
UniProt Q5SZL2: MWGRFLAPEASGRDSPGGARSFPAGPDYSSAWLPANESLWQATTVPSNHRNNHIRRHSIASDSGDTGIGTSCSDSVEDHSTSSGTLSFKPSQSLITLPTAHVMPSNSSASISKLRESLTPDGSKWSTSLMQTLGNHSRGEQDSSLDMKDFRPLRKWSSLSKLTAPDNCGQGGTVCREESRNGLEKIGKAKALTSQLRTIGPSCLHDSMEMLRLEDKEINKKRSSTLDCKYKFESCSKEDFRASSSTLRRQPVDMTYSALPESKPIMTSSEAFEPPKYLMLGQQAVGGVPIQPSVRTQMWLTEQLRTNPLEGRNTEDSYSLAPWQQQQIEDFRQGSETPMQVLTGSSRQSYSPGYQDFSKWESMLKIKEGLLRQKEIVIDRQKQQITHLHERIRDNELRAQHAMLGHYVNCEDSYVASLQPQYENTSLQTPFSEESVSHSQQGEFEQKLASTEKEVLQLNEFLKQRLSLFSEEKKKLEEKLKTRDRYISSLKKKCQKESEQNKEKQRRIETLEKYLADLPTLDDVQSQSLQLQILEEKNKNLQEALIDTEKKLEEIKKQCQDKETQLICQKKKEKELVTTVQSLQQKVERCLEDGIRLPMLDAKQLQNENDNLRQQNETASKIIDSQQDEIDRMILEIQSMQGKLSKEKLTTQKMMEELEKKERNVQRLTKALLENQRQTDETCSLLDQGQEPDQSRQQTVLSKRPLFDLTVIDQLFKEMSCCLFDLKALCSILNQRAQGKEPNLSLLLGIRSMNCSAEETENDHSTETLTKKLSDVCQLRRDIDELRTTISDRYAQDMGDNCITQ
UniProt Q9BUX1: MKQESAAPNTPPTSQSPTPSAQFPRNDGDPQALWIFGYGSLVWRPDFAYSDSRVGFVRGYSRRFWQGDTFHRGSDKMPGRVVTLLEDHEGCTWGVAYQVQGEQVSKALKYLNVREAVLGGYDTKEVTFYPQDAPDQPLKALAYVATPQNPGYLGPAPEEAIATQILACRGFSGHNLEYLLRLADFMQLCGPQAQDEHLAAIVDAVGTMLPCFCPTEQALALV
UniProt Q16667, whole entry, looked up: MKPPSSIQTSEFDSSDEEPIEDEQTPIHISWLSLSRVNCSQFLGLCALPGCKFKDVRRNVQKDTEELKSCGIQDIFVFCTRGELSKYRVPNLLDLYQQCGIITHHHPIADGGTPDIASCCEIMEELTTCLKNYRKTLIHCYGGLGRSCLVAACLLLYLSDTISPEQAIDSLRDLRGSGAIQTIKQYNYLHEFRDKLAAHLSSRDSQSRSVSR
UniProt Q9BXL8: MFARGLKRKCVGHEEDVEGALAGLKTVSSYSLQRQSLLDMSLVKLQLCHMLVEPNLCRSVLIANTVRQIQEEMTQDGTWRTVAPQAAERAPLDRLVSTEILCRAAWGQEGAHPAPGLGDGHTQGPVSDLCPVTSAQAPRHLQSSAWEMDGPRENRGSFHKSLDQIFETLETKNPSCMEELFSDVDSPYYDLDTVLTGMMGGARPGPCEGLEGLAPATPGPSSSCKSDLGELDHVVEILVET
UniProt Q7Z7K6: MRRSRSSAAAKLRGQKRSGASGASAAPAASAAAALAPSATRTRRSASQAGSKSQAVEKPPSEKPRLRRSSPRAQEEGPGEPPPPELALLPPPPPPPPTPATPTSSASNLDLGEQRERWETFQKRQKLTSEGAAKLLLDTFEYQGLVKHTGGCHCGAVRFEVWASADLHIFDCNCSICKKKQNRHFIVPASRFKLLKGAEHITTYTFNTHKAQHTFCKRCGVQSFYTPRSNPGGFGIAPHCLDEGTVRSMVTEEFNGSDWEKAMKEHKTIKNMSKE
UniProt Q86XR8: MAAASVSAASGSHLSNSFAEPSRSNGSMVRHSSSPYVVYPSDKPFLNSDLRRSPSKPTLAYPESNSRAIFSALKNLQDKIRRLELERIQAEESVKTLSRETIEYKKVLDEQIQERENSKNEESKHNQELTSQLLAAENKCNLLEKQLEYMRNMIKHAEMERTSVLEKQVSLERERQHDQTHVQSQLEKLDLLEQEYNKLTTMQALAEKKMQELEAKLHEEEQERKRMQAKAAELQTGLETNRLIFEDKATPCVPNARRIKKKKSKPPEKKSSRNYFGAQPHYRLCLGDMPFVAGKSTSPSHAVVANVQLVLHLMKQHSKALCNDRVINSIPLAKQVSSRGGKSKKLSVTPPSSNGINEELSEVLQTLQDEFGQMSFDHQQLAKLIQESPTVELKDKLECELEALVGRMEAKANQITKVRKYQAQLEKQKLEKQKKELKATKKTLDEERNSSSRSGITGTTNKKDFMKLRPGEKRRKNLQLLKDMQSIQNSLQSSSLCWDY

Assays:
Experiment in all cases: log2 fold change, soluble protein after heating vs DMSO (PISA); higher = thermal stabilisation; K562 lysate, 10 uM; active = over 0.2 and 3.5 SD of the protein, either way, in both replicates (recomputed)
lapatinib = compound: CS(=O)(=O)CCNCc1ccc(-c2ccc3ncnc(Nc4ccc(OCc5cccc(F)c5)c(Cl)c4)c3c2)o1 [lapatinib]
Method in brief: (§1)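 Log-two fold change in thermal stability relative to solvent controls is reported from duplicates. For each sample, crude K562 extract from dounce-homogenised pellets in PBS pH 7.4 with 1 mM MgCl2, at 1 mg/mL protein, was treated with 10 μM compound for 30 min. Aliquots heated for 3 min across 48°C-58°C were pooled, brought to 0.5% NP-40 at 4°C and cleared at 21,000xg for 90 min. The supernatant was quantified by TMTpro 16plex LC-MS/MS with channel sums equalised.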

crizotinib = compound: C[C@@H](Oc1cc(-c2cnn(C3CCNCC3)c2)cnc1N)c1c(Cl)ccc(F)c1Cl [crizotinib]
Method in brief: as §1

[1] = compound: C[C@H](C1=CC=C(C=C1)C(=O)NC2=C3C=CNC3=NC=C2)N
Method in brief: as §1

gandotinib = compound: Cc1cc(Nc2cc(CN3CCOCC3)c3nc(C)c(Cc4ccc(Cl)cc4F)n3n2)n[nH]1 [gandotinib]
Method in brief: as §1

doramapimod = compound: Cc1ccc(-n2nc(C(C)(C)C)cc2NC(=O)Nc2ccc(OCCN3CCOCC3)c3ccccc23)cc1 [doramapimod]
Method in brief: as §1

[2] = compound: Cc1cccc(CC(=O)N2CCc3c2ccc(-c2cn(C)c4ncnc(N)c24)c3F)n1
Method in brief: as §1

nilotinib = compound: Cc1cn(-c2cc(NC(=O)c3ccc(C)c(Nc4nccc(-c5cccnc5)n4)c3)cc(C(F)(F)F)c2)cn1 [nilotinib]
Method in brief: as §1

[3] = compound: Cc1nc(Nc2n[nH]c3c2CN(C(=O)N[C@H](CN(C)C)c2ccccc2)C3(C)C)c2sccc2n1
Method in brief: as §1

[4] = compound: Cc1ncc(-c2ccnc(Nc3ccc(S(C)(=O)=O)cc3)n2)n1C(C)C
Method in brief: as §1

quisinostat = compound: Cn1cc(CNCC2CCN(c3ncc(C(=O)NO)cn3)CC2)c2ccccc21 [quisinostat]
Method in brief: as §1

tipifarnib = compound: Cn1cncc1[C@@](N)(c1ccc(Cl)cc1)c1ccc2c(c1)c(-c1cccc(Cl)c1)cc(=O)n2C [tipifarnib]
Method in brief: as §1

[5] = compound: NC(=O)Nc1cc(-c2cccc(F)c2)sc1C(=O)N[C@H]1CCCNC1
Method in brief: as §1

[6] = compound: NC(=O)c1cnc(N[C@@H]2CCCC[C@@H]2N)nc1Nc1cccc(-n2nccn2)c1
Method in brief: as §1

[7] = compound: NC1(c2ccc(-c3nc4ccn5c(=O)[nH]nc5c4cc3-c3ccccc3)cc2)CCC1
Method in brief: as §1

pictilisib = compound: CS(=O)(=O)N1CCN(Cc2cc3nc(-c4cccc5[nH]ncc45)nc(N4CCOCC4)c3s2)CC1 [pictilisib]
Method in brief: as §1

duvelisib = compound: C[C@H](Nc1ncnc2nc[nH]c12)c1cc2cccc(Cl)c2c(=O)n1-c1ccccc1 [duvelisib]
Method in brief: as §1

tozasertib = compound: Cc1cc(Nc2cc(N3CCN(C)CC3)nc(Sc3ccc(NC(=O)C4CC4)cc3)n2)n[nH]1 [tozasertib]
Method in brief: as §1

bafetinib = compound: Cc1ccc(NC(=O)c2ccc(CN3CC[C@H](N(C)C)C3)c(C(F)(F)F)c2)cc1Nc1nccc(-c2cncnc2)n1 [bafetinib]
Method in brief: as §1

dasatinib = compound: Cc1nc(Nc2ncc(C(=O)Nc3c(C)cccc3Cl)s2)cc(N2CCN(CCO)CC2)n1 [dasatinib]
Method in brief: as §1

[8] = compound: Cn1cc(-c2ccc3c(c2)CCN3C(=O)Cc2cccc(C(F)(F)F)c2)c2c(N)ncnc21
Method in brief: as §1

Measured: log2 fold change

CEP83 (UniProt Q9Y592)
inactive: lapatinib -0.089 | crizotinib -0.047 | [1] -0.023 | gandotinib 0.005 | doramapimod 0.033 | [2] -0.065 | nilotinib 0.011 | [3] 0.009 | [4] 0.031 | quisinostat 0.013 | tipifarnib -0.167 | [5] 0.004 | [6] 0.034 | [7] -0.195

CDC25C (UniProt P30307)
inactive: lapatinib -0.118 | pictilisib -0.025 | [1] -0.049 | duvelisib -0.021 | gandotinib -0.109 | tozasertib 0.03 | doramapimod -0.003 | bafetinib 0.038 | [2] 0.013 | nilotinib 0.039 | [3] -0.037 | dasatinib 0.042 | [4] -0.048 | [8] 0.004 | quisinostat 0.056 | tipifarnib -0.004 | [5] 0.025 | [6] 0.015 | [7] 0.05

CDK2AP2 (UniProt O75956)
inactive: lapatinib 0.061 | pictilisib -0.113 | crizotinib 0.198 | [1] -0.048 | duvelisib -0.056 | gandotinib 0.086 | doramapimod 0.072 | bafetinib 0.022 | [2] 0.001 | nilotinib 0.015 | [3] 0.034 | dasatinib -0.028 | [4] 0.088 | [8] 0.068 | quisinostat -0.048 | tipifarnib 0.096 | [5] -0.096 | [6] -0.082 | [7] 0.021

CDNF (UniProt Q49AH0)
inactive: lapatinib -0.05 | crizotinib -0.061 | tozasertib 0.089 | doramapimod 0.05 | quisinostat 0.222 | [5] -0.054 | [6] 0.071

CEFIP (UniProt Q711Q0)
inactive: lapatinib -0.042 | pictilisib -0.044 | crizotinib -0.033 | [1] -0.05 | gandotinib 0.081 | tozasertib 0.069 | doramapimod 0.008 | bafetinib 0.02 | [2] 0.019 | nilotinib -0.004 | [3] 0.225 | [4] -0.153 | quisinostat -0.051 | tipifarnib 0.056 | [5] 0.083 | [6] -0.024 | [7] 0.117

CEP63 (UniProt Q96MT8)
inactive: lapatinib -0.12 | [1] -0.463 | duvelisib 0.031 | gandotinib 0.211 | tozasertib -0.016 | [2] 0.191 | nilotinib 0.286 | [3] -0.195 | dasatinib 0.166 | [4] -0.048 | [8] -0.105 | tipifarnib 0.117 | [6] -0.034 | [7] -0.137

CDK2 (UniProt P24941)
inactive: lapatinib -0.026 | pictilisib 0.028 | crizotinib 0 | duvelisib -0.026 | tozasertib 0.008 | doramapimod 0.004 | bafetinib 0.042 | [2] -0.001 | nilotinib -0.01 | dasatinib 0.018 | [8] 0.01 | quisinostat -0.077 | tipifarnib 0.011 | [5] 0.005 | [6] 0.067 | [7] -0.012
active: gandotinib 0.403

CEBPG (UniProt P53567)
inactive: lapatinib -0.164 | pictilisib -0.149 | crizotinib -0.056 | [1] -0.013 | gandotinib -0.002 | doramapimod 0.007 | bafetinib -0.017 | [2] 0.035 | quisinostat -0.001 | [5] -0.007 | [6] -0.072

CFL1 (UniProt E9PP50)
inactive: lapatinib -0.143 | pictilisib -0.316 | tozasertib -0.214 | bafetinib -0.46 | [6] -0.259

CDC42SE1 (UniProt Q9NRR8)
inactive: lapatinib 0.066 | pictilisib 0.203 | crizotinib 0.007 | [1] -0.075 | gandotinib -0.107 | doramapimod 0.012 | bafetinib -0.213 | [2] 0.02 | nilotinib 0.145 | [3] 0.373 | [4] -0.303 | quisinostat 0.023 | tipifarnib 0.027 | [5] 0.024 | [6] 0.088

Quoted from the entries so far (2 entries):
CDK2AP2 (UniProt O75956)
inactive: lapatinib 0.061 | pictilisib -0.113 | crizotinib 0.198 | [1] -0.048 | duvelisib -0.056 | gandotinib 0.086 | doramapimod 0.072 | bafetinib 0.022 | [2] 0.001 | nilotinib 0.015 | [3] 0.034 | dasatinib -0.028 | [4] 0.088 | [8] 0.068 | quisinostat -0.048 | tipifarnib 0.096 | [5] -0.096 | [6] -0.082 | [7] 0.021

CDNF (UniProt Q49AH0)
inactive: lapatinib -0.05 | crizotinib -0.061 | tozasertib 0.089 | doramapimod 0.05 | quisinostat 0.222 | [5] -0.054 | [6] 0.071

Next part

CEP85L isoform 4 (UniProt Q5SZL2)
inactive: crizotinib -0.011 | doramapimod 0.013 | quisinostat -0.047 | [5] 0.029 | [7] -0.129

CHAC1 (UniProt Q9BUX1)
inactive: pictilisib 0.395 | crizotinib -0.036 | duvelisib 0.127 | doramapimod -0.024 | bafetinib -0.137 | dasatinib -0.061 | [8] -0.049 | quisinostat -0.005 | [5] 0.062

CDKN3 (UniProt Q16667)
inactive: pictilisib -0.023 | [1] 0.039 | gandotinib -0.048 | tozasertib 0.134 | bafetinib -0.042 | [2] 0.003

CDCA4 (UniProt Q9BXL8)
inactive: duvelisib 0.031 | dasatinib -0.032 | [8] -0.054

CENPV (UniProt Q7Z7K6)
active: nilotinib 1.5
inactive: pictilisib 0.02 | crizotinib -0.119 | [1] 0.089 | gandotinib -0.193 | tozasertib 0.094 | doramapimod -0.149 | bafetinib -0.163 | [2] -0.36 | [3] -0.184 | [4] 0.816 | quisinostat 0.038 | tipifarnib 0.08 | [5] -0.077

CEP57 (UniProt Q86XR8)
inactive: [1] 0.098 | gandotinib 0.019 | tozasertib 0.019 | [2] 0.036 | [7] 0.229

CFL1 (UniProt E9PQB7)
inactive: crizotinib -0.22 | doramapimod 0.118 | quisinostat 0.073 | [5] 0.049
